Here are results for two substances from article PMC12803839.

Sequences of proteins named here, by UniProt entry; tags and fusion partners are left off.
UniProt P14618: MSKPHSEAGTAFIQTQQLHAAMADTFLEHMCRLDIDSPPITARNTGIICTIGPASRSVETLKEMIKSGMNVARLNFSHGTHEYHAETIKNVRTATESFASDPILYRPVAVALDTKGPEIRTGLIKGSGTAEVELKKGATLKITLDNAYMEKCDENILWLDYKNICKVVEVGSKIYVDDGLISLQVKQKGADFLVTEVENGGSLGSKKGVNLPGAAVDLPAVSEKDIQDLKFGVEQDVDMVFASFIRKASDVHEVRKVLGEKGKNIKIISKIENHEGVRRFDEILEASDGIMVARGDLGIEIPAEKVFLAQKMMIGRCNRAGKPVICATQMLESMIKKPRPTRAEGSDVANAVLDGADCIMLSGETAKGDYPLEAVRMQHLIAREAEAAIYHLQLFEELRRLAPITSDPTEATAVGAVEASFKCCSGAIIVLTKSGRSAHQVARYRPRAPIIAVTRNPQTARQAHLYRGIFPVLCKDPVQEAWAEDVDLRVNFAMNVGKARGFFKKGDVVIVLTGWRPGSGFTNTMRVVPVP
UniProt P46937: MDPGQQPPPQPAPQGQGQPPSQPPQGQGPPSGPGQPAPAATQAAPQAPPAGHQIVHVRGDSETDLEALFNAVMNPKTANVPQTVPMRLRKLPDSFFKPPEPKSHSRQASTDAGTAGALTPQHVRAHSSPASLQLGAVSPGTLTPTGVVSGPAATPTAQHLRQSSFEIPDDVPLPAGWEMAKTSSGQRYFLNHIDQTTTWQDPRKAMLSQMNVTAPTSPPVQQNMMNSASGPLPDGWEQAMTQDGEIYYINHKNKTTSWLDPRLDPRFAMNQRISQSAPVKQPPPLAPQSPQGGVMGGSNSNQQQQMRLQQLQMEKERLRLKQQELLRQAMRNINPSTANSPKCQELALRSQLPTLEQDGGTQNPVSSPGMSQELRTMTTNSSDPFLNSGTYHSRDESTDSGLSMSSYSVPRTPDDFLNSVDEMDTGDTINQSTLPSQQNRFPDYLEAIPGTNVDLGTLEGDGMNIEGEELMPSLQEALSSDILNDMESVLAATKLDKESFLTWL

Results are given in words; binding and its absence hold for the method and conditions named. Binding seen in cells or lysates may run through a third protein. Some entries that bind do so weakly or less than the wild type.

The target in assay [1] is pyruvate kinase M2 (human (endogenous in HK-2)) (UniProt P14618). Put plainly: co-IP; HK-2 cells after OGD/R (DMSO vehicle control), lysed in RIPA buffer; anti-PKM2 antibody overnight at 4 °C, captured on Dynabeads M-280 sheep anti-rabbit IgG; blots for YAP1 and β-catenin; rabbit serum as control; reciprocal IPs named in the results only.
Assay [2] has as its target Yes-associated protein (human (endogenous in HK-2)) (UniProt P46937). The description is as above.

Turning to “Yes-associated protein (from UniProt P46937 1-504)”, the binding result in assay [1] is given as “binds”.
In the case of “pyruvate kinase M2 (from UniProt P14618 1-531)”, the binding result in assay [2] was “binds”.
